Experimental data as given in article PMC7665200, “Mus81-Mms4 endonuclease is an Esc2-STUbL-Cullin8 mitotic substrate impacting on genome integrity” (Nature Communications, 2020).
No constants are given. Whether binding was seen depends on the method and setting. In cells and extracts the contact can be indirect. Some entries that bind do so weakly or less than the wild type. Tags and fused reporters may be left off the sequences shown. One block for each binder: values may come before it.

Tests used:
[1] = target: T1, Mus81-Mms4 complex with internal truncations Mms4 (Δ541-555) and Mus81 (Δ121-135) (S. cerevisiae (W303-derived yeast)) (UniProt P38257+Q04149); experiment: co-IP; lysate of yeast with HA-tagged Mms4/Mus81 and FLAG-tagged Esc2; HA beads overnight at 4 °C; 50 mM HEPES, 50 mM KCl, 0.1% NP40, 1.5 mM MgCl2, 1.5 mM MnCl2, 10% glycerol; western blot
T1 sequence 1: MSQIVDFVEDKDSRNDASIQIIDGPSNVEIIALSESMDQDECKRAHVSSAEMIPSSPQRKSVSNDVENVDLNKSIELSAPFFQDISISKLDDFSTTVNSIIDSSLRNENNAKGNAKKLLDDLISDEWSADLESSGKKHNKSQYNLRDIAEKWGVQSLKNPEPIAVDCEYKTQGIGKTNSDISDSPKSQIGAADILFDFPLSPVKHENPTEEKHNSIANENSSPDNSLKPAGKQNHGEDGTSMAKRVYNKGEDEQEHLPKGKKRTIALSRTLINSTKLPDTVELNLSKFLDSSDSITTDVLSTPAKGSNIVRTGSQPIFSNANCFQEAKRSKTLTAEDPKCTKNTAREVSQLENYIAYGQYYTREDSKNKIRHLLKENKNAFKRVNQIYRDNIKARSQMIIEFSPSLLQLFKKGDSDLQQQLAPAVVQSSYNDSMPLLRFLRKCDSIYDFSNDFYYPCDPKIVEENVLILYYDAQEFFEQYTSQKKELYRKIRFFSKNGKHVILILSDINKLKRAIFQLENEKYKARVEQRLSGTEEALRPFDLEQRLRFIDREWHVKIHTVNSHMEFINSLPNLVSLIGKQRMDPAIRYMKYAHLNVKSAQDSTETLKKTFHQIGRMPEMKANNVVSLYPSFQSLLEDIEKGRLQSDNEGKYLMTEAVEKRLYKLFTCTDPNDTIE
T1 sequence 2: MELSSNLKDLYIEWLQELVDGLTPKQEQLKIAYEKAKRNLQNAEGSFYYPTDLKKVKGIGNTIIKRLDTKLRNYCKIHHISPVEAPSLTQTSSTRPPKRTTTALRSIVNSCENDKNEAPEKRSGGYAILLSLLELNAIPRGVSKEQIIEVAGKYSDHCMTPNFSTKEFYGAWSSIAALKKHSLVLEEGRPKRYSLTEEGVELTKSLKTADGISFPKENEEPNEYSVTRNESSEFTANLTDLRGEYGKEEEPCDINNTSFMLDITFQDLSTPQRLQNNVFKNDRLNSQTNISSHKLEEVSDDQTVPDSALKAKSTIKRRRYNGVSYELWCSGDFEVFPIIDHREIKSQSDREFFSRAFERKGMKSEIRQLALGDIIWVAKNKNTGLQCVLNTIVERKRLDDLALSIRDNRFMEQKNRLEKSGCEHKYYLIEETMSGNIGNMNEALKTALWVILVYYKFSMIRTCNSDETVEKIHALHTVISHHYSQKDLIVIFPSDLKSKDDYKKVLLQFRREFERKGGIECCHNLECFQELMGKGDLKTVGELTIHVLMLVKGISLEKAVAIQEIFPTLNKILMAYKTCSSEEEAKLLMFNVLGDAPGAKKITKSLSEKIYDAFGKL

GST-Esc2 = target: T2, GST-Esc2 (Saccharomyces cerevisiae, UniProt Q06340 1-456); experiment: pull-down; about 5 ug GST-Esc2 immobilised on glutathione-Sepharose 4B, incubated with about 2.5 mg yeast total cell lysate at 4 °C for 2-3 h in Tris pH 7.5, 150 mM NaCl, 1 mM DTT, 1 mM EDTA, 10% glycerol, 0.1% Triton X-100; washes up to 350 mM NaCl; western blot; only the target purified
T2 construct: Esc2, Saccharomyces cerevisiae, full-length gene cloned into BamHI/SalI of pGEX-6P-2; pGEX-6P-2 should place GST at the N-terminus (surmised from the vector); also called recombinant glutathione S-transferase (GST)-Esc2; GST-tagged Esc2; source: E. coli BL21 (DE3), purified (glutathione-Sepharose 4B, eluted with reduced glutathione, dialysed)
T2 sequence (looked up): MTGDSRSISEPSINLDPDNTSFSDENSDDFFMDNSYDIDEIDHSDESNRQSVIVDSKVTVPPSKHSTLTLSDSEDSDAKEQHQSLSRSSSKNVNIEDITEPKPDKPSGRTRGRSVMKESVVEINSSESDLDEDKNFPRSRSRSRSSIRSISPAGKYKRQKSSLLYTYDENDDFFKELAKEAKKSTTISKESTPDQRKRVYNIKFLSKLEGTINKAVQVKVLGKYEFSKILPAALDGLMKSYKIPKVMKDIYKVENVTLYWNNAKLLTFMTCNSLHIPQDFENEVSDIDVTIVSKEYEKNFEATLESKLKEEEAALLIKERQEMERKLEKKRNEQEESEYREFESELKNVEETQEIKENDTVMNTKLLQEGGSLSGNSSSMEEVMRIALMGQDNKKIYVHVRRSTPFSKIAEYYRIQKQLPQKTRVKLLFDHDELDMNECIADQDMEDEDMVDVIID

- binding [1]: binds
B1: FLAG-tagged Esc2 (protein, UniProt Q06340 1-456)
chain: T2 sequence (looked up)

- binding (GST-Esc2): binds
B2: Mms1-FLAG (protein, UniProt Q06211 1-1407)
chain: MLGLRTHGLDRYEHYIRRPSDFGKLELQDWLNHKSFRVSPNLLIDSSTTREWNEPELFYQNTEDETWVRPCVGPKLEPSMMMLRYHDSNIGQMPQFCYPISSPINFKPVLKYILQERSELSDGFPQKYNTLIGSLFDIDKNPETLDDSDIEALDDIEMSSDSGNVKEPKIELQALEEIQQKHFSLIVSNNGIFQTGSTSITYIQSGISGSIAIKPNNVAILILLTQPSGHLLSILPLDDGKETYLLQYWNLGQKGQWNIIKHQNEKQFVLIHKELGICKFFEFHLPFTFQLVNNLTLTDSVIMNGSFFPTNYTDLDPYFIIFITAIRYERIVYFVIEWNNNEIKKKEVYQLTVFDGEKTNMTIPIGLNACLVETPLKFSLVSANQIMSGETEFHSFQLKALKGIKSFFPAPLLLLKLQELHPHTFKKFQYCTIISSSTGNICFCVTERSTIVNGNLKFYELTRFKGLKSISPLPSNPINLDSRSSSYVLVVISFSRTLELTLSLEDLRCLDKKDVIKPLKNITFKHTIDSSTEENSQILAFTSSKFYNTHTGSNINDTRNSQVWLTSPNAITQPCIDYKLRKTHQLIHLKQFQIFRHLRIWKCKNLDIALLQRLGINQSNTESSLIFATDAVSNNRIFLLDLTMTTTIDNDDPVQGLINIEDLLCDTENETILLNFTKNNLIQVTRDTIYIDPIGGDKELRKISPGWEFENVTYNDGILIVWNAGLGCVSYIENIDAVDESGALVSNLSSSKGMSKFFKQLGTVTSVNFQIKESTDDPTKYDIWILLPDCVIRTPFSDWISDSLDFSDVYILSVQQALINGPYFCSLDYESYFEVHTLQNNCFKKGSRCTSRVNFQGKDIKFRSFGVNQCLAFSAFEIFVINLTPIHDSRELDFYKLKLPHLGNNNSILEVCPDIENNQLFILYSDGLRILELSYLTSNNGNFLLKSTRSKNKKFLYLDKINRMLVLNQDLREWECIRLSDGKAVGLDSQLLKDDSEEILEIKELPIATEDNPLEKKTVLLISFTSSLKLVLLTAAKNKISNQIIDSYKLDNSRLLNHLVITPRGEIFFLDYKVMGTDNEMSFNKLKVTKHCIDQEERNNTTLRLTLETRFTFKSWSTVKTFTVVGDNIIATTNMGEKLYLIKDFSSSSDESRRVYPLEMYPDSKVQKIIPLNECCFVVAAYCGNRNDLDSRLIFYSLPTIKVGLNNETGSLPDEYGNGRVDDIFEVDFPEGFQFGTMALYDVLHGERHVNRYSEGIRSENDEAEVALRQRRNLLLFWRNHSSTPKPSLRRAATIVYEDHVSSRYFEDISSILGSTAMRTKRLSPYNAVALDKPIQDISYDPAVQTLYVLMADQTIHKFGKDRLPCQDEYEPRWNSGYLVSRRSIVKSDLICEVGLWNLSDNCKNTV

- binding (GST-Esc2): binds
B3: Cul8-FLAG (protein, UniProt P47050 1-842)
chain: MINESVSKREGFHESISRETSASNALGLYNKFNDERNPRYRTMIAELHEFFHLTLAETITETDVKELECNKEKAAKFRKLMPKMLNNCRELTQRKSYIPYNSEFNGNDEKQKKFQLLHQHQIVLSFQEFCDELAKLIIDAHVLSFLTRCDYSYEIIPKNWTSFYKLFQYVMGAVGPIISYVPVNYPMIRKELGFETLTIFQYYDSKLFECMKSHFGREFSTLVSATIHHYIHMFPITNTMLEKEVPMLRIMSNCNFSIEGLSPKDFYMKTLRQYYCEESNLRPRLETFKNFKVLLTRNALLASLFSPEWVSDANDLFISHLLLNKKSISEYIEIGKDTYDEEKERYFKTETHFSLLMFRNAFEAKNMLSKFKEFCDDAVSEKLKAAYGSNHDTERLFDEVVQLANVDHLKIYSDSIEYHLCNLLGSTSKAIEQYVKYFESHLFIIVRKIKTTKKDLPRDMKIKYLNENLPILRLKFVNLPTFPNFFERSIFRKTILQSDQNSSFIKDILPVYKDSLMELFKQRIITNVSQEDEMRYRDQYQPYLSQFFQPVEVMADLRIKYASFLSFYENIEAAVKFGKTYNENNSKSFFPLIFDRERIPKVFQQSNEVKKNFVLPQEMDDTWNQFLRNYHEQNKVEDSDASKKELYPMWNLHHCEVESPYIIQDGTNLIFELTLFQTCVLTLFNESDHLTLQVISEQTKLAYKDLALVLKSFCNYKILTRDIDNTYSINESFKPDMKKVKNGKLRVVLPRTASLQSSNTGGERTSSAHHEGSNSQWTQELLKACITRSVKSERNGLDYDHLFETVKQQIKGFSVGEFKDALAKLLRDKFITRDESTATYKY
